This is an account of results in paper PMC10181827.

Protein sequences, listed by entry. Tags and fused reporters are not part of them. Lines headed by an entry give the natural chain unless they say otherwise; changes in a name come on top.
UniProt Q69ZS8: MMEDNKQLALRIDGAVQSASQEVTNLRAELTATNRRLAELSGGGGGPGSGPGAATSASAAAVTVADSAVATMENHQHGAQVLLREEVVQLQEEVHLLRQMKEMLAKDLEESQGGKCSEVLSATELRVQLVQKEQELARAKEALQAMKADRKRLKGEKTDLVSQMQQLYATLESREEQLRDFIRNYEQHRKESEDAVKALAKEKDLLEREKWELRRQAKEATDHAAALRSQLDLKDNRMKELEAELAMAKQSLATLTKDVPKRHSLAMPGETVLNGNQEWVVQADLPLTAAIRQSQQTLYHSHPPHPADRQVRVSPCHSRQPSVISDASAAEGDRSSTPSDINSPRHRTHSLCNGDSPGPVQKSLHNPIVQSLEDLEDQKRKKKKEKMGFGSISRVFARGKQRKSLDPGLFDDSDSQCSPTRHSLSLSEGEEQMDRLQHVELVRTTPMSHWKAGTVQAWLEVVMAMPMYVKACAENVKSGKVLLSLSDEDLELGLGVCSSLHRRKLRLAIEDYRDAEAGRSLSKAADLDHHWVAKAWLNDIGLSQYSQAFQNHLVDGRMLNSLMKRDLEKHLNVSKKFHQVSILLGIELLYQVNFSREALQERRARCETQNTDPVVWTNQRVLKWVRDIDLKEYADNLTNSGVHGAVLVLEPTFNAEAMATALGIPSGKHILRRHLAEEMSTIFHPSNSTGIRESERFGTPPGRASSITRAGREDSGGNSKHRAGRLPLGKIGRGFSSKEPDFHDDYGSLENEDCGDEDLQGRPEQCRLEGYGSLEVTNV
UniProt O08788: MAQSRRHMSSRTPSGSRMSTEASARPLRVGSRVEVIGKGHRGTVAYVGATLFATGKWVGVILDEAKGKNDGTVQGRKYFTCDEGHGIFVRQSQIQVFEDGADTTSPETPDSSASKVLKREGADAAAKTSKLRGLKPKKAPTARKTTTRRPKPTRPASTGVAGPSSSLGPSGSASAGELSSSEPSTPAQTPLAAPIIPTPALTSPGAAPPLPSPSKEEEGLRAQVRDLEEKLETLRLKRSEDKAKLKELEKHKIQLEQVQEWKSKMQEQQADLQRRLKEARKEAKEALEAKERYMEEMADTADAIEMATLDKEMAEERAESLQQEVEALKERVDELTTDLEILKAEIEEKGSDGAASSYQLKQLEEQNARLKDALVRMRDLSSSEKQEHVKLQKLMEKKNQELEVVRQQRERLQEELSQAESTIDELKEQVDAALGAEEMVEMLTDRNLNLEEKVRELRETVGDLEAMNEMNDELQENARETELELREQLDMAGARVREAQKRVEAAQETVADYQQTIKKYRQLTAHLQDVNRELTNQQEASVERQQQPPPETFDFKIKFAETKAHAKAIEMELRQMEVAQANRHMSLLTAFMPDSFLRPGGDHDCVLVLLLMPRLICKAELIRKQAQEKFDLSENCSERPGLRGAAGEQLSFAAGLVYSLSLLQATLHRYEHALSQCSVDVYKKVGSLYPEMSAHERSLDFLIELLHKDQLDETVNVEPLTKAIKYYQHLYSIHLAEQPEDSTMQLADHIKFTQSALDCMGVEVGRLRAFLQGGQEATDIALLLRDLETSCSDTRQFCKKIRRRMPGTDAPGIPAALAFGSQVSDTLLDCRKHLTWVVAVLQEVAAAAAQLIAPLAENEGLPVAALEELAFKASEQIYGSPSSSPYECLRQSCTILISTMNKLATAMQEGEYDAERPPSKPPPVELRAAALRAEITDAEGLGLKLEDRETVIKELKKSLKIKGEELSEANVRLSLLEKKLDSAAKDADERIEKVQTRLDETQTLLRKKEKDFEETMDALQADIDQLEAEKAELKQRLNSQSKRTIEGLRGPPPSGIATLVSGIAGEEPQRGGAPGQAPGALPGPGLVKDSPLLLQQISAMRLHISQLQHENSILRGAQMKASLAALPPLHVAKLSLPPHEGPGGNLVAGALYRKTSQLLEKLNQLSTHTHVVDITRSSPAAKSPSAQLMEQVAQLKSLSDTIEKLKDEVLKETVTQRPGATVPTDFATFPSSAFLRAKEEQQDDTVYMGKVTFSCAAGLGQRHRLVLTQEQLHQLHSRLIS
UniProt P22892: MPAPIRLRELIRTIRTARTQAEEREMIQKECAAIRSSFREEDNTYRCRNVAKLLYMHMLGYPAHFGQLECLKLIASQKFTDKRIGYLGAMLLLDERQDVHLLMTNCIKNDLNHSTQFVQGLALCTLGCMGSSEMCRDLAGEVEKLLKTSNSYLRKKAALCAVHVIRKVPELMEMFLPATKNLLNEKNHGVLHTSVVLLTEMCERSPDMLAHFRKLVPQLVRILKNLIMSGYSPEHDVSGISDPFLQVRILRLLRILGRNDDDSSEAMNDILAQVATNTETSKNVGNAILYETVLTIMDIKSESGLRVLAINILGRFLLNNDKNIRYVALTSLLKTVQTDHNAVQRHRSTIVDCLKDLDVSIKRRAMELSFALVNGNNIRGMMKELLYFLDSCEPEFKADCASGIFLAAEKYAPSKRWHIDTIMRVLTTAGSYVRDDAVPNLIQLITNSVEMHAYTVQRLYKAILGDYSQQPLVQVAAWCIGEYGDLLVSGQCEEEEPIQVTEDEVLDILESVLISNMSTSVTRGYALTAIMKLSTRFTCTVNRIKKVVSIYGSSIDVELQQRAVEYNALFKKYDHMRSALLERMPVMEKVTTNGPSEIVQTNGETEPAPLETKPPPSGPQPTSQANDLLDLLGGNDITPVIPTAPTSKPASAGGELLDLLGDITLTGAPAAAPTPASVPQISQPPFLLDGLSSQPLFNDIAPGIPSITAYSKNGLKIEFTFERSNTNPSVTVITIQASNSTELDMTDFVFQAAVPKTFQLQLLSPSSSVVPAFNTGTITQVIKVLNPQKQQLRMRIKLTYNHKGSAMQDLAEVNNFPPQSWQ

The target of experiment [1] is endogenous kazrin (mouse (endogenous in MEF)) (UniProt Q69ZS8). Put plainly: co-IP; endogenous; WT or kazKO MEF extracts with rabbit IgGs against kazrin C (methods: C-terminus, aa 161-327; legends: mixed sera against the N- and C-terminal portions) pre-bound to Protein A-Sepharose, or pre-immune IgGs; immunoblot.
A further experiment has as its target T1, GST-EHD1 (UniProt Q9H4M9).
T1 sequence: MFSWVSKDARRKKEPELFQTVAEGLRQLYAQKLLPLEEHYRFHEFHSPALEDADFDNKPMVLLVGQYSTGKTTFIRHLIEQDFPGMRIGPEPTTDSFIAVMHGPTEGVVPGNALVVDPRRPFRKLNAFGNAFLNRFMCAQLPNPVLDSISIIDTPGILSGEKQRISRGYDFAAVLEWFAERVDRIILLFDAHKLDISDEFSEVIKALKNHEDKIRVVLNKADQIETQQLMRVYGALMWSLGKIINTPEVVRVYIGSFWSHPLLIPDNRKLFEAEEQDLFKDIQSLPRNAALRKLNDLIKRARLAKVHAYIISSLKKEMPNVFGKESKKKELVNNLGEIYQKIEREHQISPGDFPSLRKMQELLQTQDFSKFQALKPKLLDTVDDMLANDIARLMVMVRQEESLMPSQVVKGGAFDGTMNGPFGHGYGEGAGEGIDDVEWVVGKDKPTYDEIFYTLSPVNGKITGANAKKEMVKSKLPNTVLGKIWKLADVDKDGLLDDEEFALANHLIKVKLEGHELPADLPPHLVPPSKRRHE
Put plainly: pull-down; glutathione-Sepharose beads coated with 0.5 μg GST fusion protein, 2 nM eluted 6xHis-kazrin C in 1 ml PBS with 0.2% Triton-X100 and 0.5% BSA, 1 hr at 4 °C; immunoblot with anti-kazrin (Figures 3C and 5J); both purified.

Another experiment has as its target T2, GST-EHD3 (UniProt Q9NZN3).
T2 sequence: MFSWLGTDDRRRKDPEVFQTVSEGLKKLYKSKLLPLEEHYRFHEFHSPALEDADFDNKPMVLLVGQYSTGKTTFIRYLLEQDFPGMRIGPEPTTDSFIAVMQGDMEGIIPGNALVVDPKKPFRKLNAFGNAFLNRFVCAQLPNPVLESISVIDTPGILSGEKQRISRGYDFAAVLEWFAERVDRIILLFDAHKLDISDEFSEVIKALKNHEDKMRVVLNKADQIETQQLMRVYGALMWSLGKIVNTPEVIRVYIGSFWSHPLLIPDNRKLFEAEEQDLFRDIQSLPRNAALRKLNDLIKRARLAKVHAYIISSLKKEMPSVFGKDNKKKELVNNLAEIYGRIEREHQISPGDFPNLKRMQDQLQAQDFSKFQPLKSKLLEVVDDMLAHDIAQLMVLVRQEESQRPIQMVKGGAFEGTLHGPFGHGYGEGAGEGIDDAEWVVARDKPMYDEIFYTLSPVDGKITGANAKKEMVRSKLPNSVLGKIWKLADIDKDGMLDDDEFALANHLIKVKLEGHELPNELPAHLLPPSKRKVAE
The experiment is described as above.

Results are given in words; binding and its absence hold for the method and conditions named. Binding can be weak; no strength is given. For some of these results: Tags and fused reporters may be left off the sequences shown. For some of these results: In cells and extracts the contact can be indirect.

For the substance p150-glued (from UniProt O08788 1-1281), in experiment [1], the binding entry is reported as “binds”. For 6xHis-kazrin C (human), the binding entry in the experiment with GST-EHD1 and with GST-EHD3 was “binds” throughout. As to γ-adaptin (from UniProt P22892 1-822), the binding entry in experiment [1] is “binds”.
